The results in this text go back to article PMC5180179, “Bacteriophage T5 gene D10 encodes a branch-migration protein”.

No constants are given. Whether binding was seen depends on the method and setting.

In this experiment the target is bacteriophage T5 D10 helicase (D10 gene product) (bacteriophage T5) (UniProt P11107). Description: SEC; Superdex 75, final purification column; 20 mM Tris-HCl pH 7.5, 0.3 M NaCl, 1 mM EDTA, 1 mM PMSF, 5 mM DTT, 10% v/v glycerol; 4 °C; both purified.

B1: bacteriophage T5 D10 helicase (D10 gene product) (enzyme, UniProt P11107 1-450)
chain: MKVVISNKAYFKPDDELWDYCSKQTTYHIETMTSKYPIMYKNSGVVAKEIKWIPITRLDLLDAKGIKYELVDKRTLAPVDIPKPKFKLREEDQLPIYEECDDTCIINGKPGFGKTILALALAYKFGQKTLVICTNTSIREMWAAEVRKWFGFEPGIIGSGKYNIDPPIVVSNIQTVNKHANNLSKVFGTVIVDEVHHCVATTFTNFLEISCARYKIGLSGTLKRKDGLQVMFKDFFGYKIFSPPVNNTVAPTIHRYSVPVELSGNQNVPWALRANDVYNHPEYRETIINLAHLYVNMGHKVLIVSDRTELIQTILEALTQRGVTTYEIIGATHLDDRLKIQEDIAKGGPCVLAAAQSIFSEGISLNELSCLIMGSLINNESLIEQLAGRVQRIVEGKLDPIVVDLIMKGGTGLRQASGRMAVYRNNGWKTITMTPEKAVQLAKIAFGNSS
Consider B1, for which the binding entry is reported as “no binding”.
